Experimental findings from PubChem BioAssay AID492965 (The Scripps Research Institute Molecular Screening Center, 2010) are described below.

SMILES strings stand for the structures. Out of some 1,100 compounds screened, about 100 (9.1%) were called active.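 The calls were made as follows: active = inhibition above a per-plate limit, the mean inhibition of that plate's test compounds plus 3 SD (cut at about 25% in these data); inactive = the rest.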 This is a selection; strong and weak results do not stand in their true shares.

This assay is described as follows: ATP-evoked calcium inhibition in parental CHO, counter-screen for OX1R antagonist project, cell-based, fluorescence, CHO-K1, triplicate (AID 492965).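 Also: 0% = ATP challenge with DMSO and 100% = DMSO without ATP.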 As to conditions: parental CHO-K1, ATP-induced calcium, Fluo-8 fluorescence; at 5.6 µM; hits give high values.
`CC(C(=O)Nc1ccc(Cl)cc1Cl)N1CC=C(c2ccccc2)CC1` (stereo unspecified): the inhibition was inactive: -16.3%.
